Reference: the supplement of paper PMC7666118
The list shows a part of the results.

The chains behind the UniProt entries cited, without tags or fusion partners. Where a name states a change or a piece, a line headed by the entry shows the natural chain unless it says otherwise.
UniProt P30046: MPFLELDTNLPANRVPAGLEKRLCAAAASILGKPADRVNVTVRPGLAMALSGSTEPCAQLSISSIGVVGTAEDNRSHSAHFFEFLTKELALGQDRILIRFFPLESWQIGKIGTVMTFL
UniProt P09669, whole entry: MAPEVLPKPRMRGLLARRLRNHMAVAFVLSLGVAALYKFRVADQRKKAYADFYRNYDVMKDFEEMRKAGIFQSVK
UniProt O43293: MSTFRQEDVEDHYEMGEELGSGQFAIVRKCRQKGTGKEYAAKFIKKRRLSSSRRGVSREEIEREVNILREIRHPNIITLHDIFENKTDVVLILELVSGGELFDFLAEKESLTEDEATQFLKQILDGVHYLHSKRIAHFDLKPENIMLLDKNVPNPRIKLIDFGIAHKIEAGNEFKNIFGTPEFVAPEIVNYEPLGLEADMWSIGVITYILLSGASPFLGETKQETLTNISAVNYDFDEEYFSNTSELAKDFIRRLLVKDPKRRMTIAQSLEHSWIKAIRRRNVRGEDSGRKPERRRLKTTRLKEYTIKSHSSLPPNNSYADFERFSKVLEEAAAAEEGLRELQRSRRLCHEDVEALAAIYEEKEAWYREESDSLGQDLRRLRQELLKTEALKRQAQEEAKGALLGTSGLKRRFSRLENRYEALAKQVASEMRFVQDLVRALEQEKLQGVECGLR
UniProt P31327: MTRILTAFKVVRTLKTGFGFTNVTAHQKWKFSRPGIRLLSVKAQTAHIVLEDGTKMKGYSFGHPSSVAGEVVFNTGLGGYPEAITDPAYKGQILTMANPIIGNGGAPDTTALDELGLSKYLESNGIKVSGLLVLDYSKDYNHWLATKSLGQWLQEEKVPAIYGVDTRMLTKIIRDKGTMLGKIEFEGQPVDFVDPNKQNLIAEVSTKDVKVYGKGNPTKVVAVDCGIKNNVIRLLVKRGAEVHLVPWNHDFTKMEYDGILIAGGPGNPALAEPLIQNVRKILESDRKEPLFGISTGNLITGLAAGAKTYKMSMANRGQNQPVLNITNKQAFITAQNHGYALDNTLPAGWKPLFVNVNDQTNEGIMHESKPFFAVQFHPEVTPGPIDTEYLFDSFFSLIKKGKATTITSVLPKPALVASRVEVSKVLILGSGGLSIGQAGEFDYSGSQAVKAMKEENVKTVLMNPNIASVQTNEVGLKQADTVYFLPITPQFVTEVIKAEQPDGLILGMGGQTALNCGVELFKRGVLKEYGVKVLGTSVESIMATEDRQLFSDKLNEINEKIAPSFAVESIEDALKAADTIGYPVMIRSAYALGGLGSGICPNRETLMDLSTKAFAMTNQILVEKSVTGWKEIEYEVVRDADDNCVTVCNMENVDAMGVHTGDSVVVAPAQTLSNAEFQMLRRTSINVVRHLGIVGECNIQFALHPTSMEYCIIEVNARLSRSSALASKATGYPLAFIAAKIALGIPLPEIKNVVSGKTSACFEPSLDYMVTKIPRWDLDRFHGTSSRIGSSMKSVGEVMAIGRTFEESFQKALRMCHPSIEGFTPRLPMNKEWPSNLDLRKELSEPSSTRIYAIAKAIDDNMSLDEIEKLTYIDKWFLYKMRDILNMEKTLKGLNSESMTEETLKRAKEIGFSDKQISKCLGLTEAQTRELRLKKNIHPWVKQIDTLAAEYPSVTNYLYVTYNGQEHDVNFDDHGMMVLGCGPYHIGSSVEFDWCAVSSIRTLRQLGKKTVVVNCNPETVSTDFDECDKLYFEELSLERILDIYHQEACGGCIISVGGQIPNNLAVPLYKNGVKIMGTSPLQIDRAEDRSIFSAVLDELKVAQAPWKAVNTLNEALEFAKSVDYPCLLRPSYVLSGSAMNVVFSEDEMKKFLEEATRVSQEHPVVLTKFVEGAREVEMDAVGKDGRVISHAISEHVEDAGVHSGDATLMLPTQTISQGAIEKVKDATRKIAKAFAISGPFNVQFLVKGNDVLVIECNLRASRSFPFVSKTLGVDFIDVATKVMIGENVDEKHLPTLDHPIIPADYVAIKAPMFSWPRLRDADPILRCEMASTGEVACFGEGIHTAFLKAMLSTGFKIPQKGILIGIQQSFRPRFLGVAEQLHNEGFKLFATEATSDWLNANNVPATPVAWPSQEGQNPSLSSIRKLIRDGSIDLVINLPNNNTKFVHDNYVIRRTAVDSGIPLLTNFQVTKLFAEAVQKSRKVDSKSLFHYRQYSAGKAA
UniProt O14548: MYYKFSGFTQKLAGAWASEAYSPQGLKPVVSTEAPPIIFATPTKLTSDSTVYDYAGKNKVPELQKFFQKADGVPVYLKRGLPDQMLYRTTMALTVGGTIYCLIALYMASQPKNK
UniProt Q16526: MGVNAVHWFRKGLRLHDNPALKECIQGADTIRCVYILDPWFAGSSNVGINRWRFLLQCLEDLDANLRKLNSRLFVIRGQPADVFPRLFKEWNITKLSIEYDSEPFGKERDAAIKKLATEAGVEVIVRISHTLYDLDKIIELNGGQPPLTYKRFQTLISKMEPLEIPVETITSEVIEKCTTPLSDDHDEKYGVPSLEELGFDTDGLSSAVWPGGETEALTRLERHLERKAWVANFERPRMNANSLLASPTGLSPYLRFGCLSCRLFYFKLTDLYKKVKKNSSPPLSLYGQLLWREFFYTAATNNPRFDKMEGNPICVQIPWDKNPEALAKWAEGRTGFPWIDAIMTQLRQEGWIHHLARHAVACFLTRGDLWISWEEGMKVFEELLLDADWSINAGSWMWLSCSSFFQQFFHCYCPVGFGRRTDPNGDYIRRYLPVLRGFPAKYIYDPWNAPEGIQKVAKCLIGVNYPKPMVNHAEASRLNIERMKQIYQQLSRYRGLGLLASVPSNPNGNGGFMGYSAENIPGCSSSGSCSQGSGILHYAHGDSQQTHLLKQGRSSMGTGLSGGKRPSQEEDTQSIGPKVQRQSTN
UniProt Q99829: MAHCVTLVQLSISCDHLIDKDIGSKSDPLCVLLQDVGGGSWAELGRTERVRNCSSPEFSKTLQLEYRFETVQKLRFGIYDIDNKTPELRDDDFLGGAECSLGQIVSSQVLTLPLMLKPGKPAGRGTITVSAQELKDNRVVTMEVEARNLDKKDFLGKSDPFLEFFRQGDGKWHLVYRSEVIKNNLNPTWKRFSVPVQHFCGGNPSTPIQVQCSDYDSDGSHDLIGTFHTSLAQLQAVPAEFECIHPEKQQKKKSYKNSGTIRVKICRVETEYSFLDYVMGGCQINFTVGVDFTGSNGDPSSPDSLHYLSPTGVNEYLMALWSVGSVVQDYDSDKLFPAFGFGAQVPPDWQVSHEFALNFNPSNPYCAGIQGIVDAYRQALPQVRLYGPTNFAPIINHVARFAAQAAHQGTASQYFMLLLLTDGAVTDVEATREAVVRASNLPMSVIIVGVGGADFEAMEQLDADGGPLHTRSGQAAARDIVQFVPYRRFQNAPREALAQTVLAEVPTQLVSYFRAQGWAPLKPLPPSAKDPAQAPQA
UniProt O15121: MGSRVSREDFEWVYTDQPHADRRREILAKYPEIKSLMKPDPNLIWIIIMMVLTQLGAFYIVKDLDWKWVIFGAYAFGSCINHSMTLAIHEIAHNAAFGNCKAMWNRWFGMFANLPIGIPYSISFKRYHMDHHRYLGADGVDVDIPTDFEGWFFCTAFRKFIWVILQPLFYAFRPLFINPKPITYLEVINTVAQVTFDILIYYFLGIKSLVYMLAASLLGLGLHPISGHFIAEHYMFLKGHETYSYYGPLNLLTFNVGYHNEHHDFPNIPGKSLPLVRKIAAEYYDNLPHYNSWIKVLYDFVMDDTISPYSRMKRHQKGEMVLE
UniProt P49711: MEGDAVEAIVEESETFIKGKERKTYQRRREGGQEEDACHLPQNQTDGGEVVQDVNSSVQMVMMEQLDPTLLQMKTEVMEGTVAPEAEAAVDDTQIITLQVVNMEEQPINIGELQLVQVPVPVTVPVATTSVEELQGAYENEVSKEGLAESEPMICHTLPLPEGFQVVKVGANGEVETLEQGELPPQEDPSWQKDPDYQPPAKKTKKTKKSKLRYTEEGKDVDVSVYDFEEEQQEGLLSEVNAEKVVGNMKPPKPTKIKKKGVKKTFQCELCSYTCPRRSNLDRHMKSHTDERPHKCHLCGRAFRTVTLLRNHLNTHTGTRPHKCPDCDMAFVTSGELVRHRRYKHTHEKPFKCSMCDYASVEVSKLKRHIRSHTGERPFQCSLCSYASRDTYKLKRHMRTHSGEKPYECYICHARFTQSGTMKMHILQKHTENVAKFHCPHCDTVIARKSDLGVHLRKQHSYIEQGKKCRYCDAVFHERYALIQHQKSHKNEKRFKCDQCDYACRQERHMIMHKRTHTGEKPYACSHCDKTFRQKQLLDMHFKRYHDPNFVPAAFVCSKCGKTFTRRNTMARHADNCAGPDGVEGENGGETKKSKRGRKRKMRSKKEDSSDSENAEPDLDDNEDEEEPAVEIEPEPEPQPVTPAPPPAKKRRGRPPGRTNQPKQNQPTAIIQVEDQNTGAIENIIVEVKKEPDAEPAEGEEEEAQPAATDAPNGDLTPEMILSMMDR
UniProt Q7Z4W1: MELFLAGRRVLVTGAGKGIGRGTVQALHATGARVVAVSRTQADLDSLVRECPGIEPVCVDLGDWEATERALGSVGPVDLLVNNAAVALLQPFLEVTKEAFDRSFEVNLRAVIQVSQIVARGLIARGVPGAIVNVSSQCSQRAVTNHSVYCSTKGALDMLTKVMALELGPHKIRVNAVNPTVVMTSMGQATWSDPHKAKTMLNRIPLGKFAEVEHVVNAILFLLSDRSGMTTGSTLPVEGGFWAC
UniProt Q9UBM7: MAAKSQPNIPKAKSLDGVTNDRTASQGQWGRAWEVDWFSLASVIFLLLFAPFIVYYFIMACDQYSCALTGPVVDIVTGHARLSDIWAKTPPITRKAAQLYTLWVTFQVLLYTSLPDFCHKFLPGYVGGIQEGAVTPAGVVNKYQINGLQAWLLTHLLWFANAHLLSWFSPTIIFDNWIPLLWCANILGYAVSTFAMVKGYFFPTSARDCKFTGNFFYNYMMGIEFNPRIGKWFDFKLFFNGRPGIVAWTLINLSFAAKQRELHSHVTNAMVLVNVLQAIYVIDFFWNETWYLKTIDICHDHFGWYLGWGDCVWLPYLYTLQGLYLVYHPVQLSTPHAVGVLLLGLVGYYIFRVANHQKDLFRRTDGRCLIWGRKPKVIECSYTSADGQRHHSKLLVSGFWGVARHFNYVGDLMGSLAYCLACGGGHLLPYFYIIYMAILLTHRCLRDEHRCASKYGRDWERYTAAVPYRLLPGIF
UniProt P50416: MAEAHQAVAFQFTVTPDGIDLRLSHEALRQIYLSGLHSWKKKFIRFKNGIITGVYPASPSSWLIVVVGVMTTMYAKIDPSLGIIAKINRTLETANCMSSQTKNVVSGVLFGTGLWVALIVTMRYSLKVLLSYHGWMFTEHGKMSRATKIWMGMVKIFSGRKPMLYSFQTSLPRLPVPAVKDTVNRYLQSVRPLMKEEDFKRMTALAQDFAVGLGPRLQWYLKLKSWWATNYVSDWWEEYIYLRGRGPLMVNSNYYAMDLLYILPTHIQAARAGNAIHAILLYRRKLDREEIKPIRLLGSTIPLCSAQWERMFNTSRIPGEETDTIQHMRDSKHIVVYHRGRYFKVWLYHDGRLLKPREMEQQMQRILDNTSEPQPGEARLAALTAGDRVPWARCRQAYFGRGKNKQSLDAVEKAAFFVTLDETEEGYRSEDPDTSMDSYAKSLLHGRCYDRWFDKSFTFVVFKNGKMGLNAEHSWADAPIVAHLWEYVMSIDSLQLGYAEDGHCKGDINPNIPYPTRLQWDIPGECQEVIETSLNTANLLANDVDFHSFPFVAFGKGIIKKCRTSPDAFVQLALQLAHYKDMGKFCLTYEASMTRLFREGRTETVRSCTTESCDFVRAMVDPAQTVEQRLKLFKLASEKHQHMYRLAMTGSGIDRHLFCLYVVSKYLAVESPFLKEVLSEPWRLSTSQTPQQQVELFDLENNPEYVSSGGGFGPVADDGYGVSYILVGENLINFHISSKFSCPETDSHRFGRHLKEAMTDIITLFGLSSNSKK
UniProt Q5HYK3: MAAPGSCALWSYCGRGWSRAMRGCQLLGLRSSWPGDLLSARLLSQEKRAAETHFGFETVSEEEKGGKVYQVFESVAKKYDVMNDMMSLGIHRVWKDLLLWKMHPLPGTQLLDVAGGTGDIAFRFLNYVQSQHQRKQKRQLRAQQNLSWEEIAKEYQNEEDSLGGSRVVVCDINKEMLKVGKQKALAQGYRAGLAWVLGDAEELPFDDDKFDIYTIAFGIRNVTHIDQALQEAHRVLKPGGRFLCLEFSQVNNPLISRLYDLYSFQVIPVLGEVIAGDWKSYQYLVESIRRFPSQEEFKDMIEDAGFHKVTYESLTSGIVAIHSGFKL
UniProt Q7L5N1: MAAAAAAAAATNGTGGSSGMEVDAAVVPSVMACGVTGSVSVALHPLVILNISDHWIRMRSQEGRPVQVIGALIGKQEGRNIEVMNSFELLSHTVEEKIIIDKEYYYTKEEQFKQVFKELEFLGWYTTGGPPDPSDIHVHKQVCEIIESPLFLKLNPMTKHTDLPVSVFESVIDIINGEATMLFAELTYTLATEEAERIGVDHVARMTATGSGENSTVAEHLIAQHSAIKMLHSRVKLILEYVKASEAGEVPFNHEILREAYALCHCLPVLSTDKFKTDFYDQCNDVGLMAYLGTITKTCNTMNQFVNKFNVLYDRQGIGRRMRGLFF

Compound: COc1ccc(Cn2ccc3ccc(C(=O)NO)cc32)cc1
Test: dose-dependent thermal stabilisation call (2D-TPP, DLPTP, 10% FDR) (binary (1 = stabilised)); higher = stabilised by the compound
Conditions: system: HL-60 intact cells; concentration range 0.04-10 µM

Target | dose-dependent thermal stabilisation call
DDT (UniProt P30046) | inactive: 0
COX6C (UniProt P09669) | inactive: 0
DDX6 (UniProt P26196) | inactive: 0
CYP2U1 (UniProt Q7Z449) | inactive: 0
DAPK3 (UniProt O43293) | inactive: 0
CTSS (UniProt P25774) | inactive: 0
CUX1 | inactive: 0
CPSF4 (UniProt O95639) | inactive: 0
DDX41 (UniProt Q9UJV9) | inactive: 0
CPS1 (UniProt P31327) | inactive: 0
COX7A2L (UniProt O14548) | inactive: 0
CWF19L2 (UniProt Q2TBE0) | inactive: 0
CRY1 (UniProt Q16526) | inactive: 0
DDX56 (UniProt Q9NY93) | inactive: 0
CPNE1 (UniProt Q99829) | inactive: 0
DEK (UniProt P35659) | inactive: 0
DDOST (UniProt P39656) | inactive: 0
DEGS1 (UniProt O15121) | inactive: 0
DDA1 (UniProt Q9BW61) | inactive: 0

Copied from the list:
For dose-dependent thermal stabilisation call, DDX41 (UniProt Q9UJV9) has inactive: 0
For dose-dependent thermal stabilisation call, DDA1 (UniProt Q9BW61) has inactive: 0

More records

Target | dose-dependent thermal stabilisation call
CTCF (UniProt P49711) | inactive: 0
CSTF1 (UniProt Q05048) | inactive: 0
CPD (UniProt O75976) | inactive: 0
CROCC (UniProt Q5TZA2) | inactive: 0
DCXR (UniProt Q7Z4W1) | inactive: 0
COPS8 (UniProt Q99627) | inactive: 0
DHCR7 (UniProt Q9UBM7) | inactive: 0
CRKRS (UniProt Q9NYV4) | inactive: 0
CREG1 (UniProt O75629) | inactive: 0
CPT1A (UniProt P50416) | inactive: 0
COQ5 (UniProt Q5HYK3) | inactive: 0
CYB5A (UniProt P00167) | inactive: 0
DDX28 (UniProt Q9NUL7) | inactive: 0
COMMD8 (UniProt Q9NX08) | inactive: 0
DDX27 (UniProt Q96GQ7) | inactive: 0
DECR1 (UniProt Q16698) | inactive: 0
CTSB (UniProt P07858) | inactive: 0
COPS3 (UniProt Q9UNS2) | inactive: 0
COPS6 (UniProt Q7L5N1) | inactive: 0
